PubChem BioAssay AID1671195 – Yale University, 2021
In all, the deposit lists about 22,000 reagents; this is an unselected part. About 1,510 of them (6.9%) count as active. 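Active includes knockdowns raising or lowering LDL uptake; positive z-scores mean more uptake, negative mean less.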 Unmarked entries are inactive.

Assay: 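Genes whose knockdown alters LDL uptake in liver cancer cells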 (primary screen)
Cells: human Huh7 hepatoma cells
Reagent: siRNA pool against human genes, 18 nM
Time to read-out: about 2 to 2.5 days of knockdown, then 8 h LDL uptake
Conditions: DiI-labelled LDL at 30 µg/ml for 8 h, in lipoprotein-deficient serum medium
Measurement: 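Fluorescent LDL signal imaged in cells, scaled to the plate median, robust z-score for each replicate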
Reading the numbers: robust z-score: higher = more LDL uptake after knockdown
Rule for the call: 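Active when two or more replicates show a robust z-score above 2 or below -2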

Target gene | robust z-score, replicate 1 | robust z-score, replicate 2 | robust z-score, replicate 3
RERG | -2.05 | -0.463 | -1.38
HSD3BP3 | -0.308 | -0.517 | -0.354
CACNB4 | 0.289 | 1.13 | 0.808
LYRM1 | -0.512 | -0.931 | 0.677
MIRLET7BHG | -0.759 | -1.09 | -1.06
POLR1G | -1.56 | -1.53 | -1.53
ZNF585A | 3.01 (active) | 2.66 | 1.97
DUSP6 | 1.66 (active) | 2.77 | 2.98
LOC389267 (retired record) | -0.389 | -1.03 | -0.391
ZNF275 | 0.201 | 1.06 | 0.495
CACYBP | -1.11 | 0.0709 | 1.17
ARHGEF11 | 0.739 | 0.227 | 0.158
ASPRV1 | -1.53 | -1.69 | -2.29
GABRB1 | 0.69 | 1 | 0.707
LOC389904 (retired record) | 0.297 | 0.828 | 0.97
AKIRIN1 | -1.32 | -1.89 | -1.78
RNF212 | 0.765 | 0.827 | 0.454
TTC21B | 0.164 | 0.451 | -0.197
HOXD3 | -0.621 | -0.495 | 0.0477
CCDC190 | 1.14 | 1.06 | 0.858
LOC400606 (retired record) | -0.13 | -0.151 | 0.0238
SLC46A3 | 0.0655 | 0.189 | 0.0936
GPATCH3 | 0.481 | 0.336 | -0.0762
LOC401599 (retired record) | -0.752 | -0.402 | -1.33
TUSC8 | 0.502 | 0.359 | -0.334
CST3 | -0.0184 | -0.27 | 0.306
SAP18 | -0.405 | -0.552 | -0.283
DENND3 | 0.708 | 0.545 | 0.608

Entries above whose target name begins with L or l (5):
Target gene | robust z-score, replicate 1 | robust z-score, replicate 2 | robust z-score, replicate 3
LYRM1 | -0.512 | -0.931 | 0.677
LOC389267 (retired record) | -0.389 | -1.03 | -0.391
LOC389904 (retired record) | 0.297 | 0.828 | 0.97
LOC400606 (retired record) | -0.13 | -0.151 | 0.0238
LOC401599 (retired record) | -0.752 | -0.402 | -1.33
